# Results from the supplement of paper PMC7024190.
# Counter-ions that a name gives are not always drawn. Some of the results follow. This data set is noisy: repeats of one test often differ as much as different tests do.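 A first-round screen of about ten thousand compounds sought those raising reporter output, using human embryonic kidney cells briefly transfected with a plasmid carrying a Renilla luciferase gene driven by the HSV-TK promoter.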
# Tested on: HEK 293FT
# Assay: log relative Renilla luciferase luminescence (reporter expression vs reference, reference not stated) (log (base not stated)); higher = higher recombinant reporter expression
# Details: 10 µM; time after transfection 48 h
row,SMILES,log
1,CCOc1ccc2nc3cc(N)ccc3c(N)c2c1 [Ethacridine],-1.23
2,C=C1C(=O)O[C@@H]2[C@H]1CC[C@H](C)[C@]1(O)CCC(=O)[C@@]21C [Coronopilin],-0.0781
3,CCOc1ccc(NC(=S)Nc2ccc(OCC)cc2)cc1 [Etocarlide],-0.0552
4,COc1ccc(C2C(=O)c3ccccc3C2=O)cc1 [Anisindione],0.0306
5,CCOC(=O)CCc1nc2ccccc2[nH]1 [Procodazole-ethyl-ester],-0.198
6,CCC(C(=O)OCCOCCN(CC)CC)c1ccccc1 (stereo not given) [Butamirate Citrate],0.029
7,CNCCc1ccccn1 [Betahistine],-0.0295
8,CCCCC(=O)N(Cc1ccc(-c2ccccc2-c2nnn[nH]2)cc1)[C@H](C(=O)O)C(C)C [Valsartan],0.102
9,C[C@H]1O[C@@H](n2cc(F)c(=O)[nH]c2=O)[C@H](O)[C@@H]1O [Doxifluridine Hydrochloride],-0.0897
10,COc1c2[nH]c3occc3c(OC)c-2ccc1=O [Haplopine],0.0805
11,Cc1cc2nc3c(=O)[nH]c(=O)nc-3n(C[C@H](O)[C@H](O)[C@H](O)CO)c2cc1C [Riboflavin],0.123
12,Cc1cc(O)c2c3c4c(cc(O)c13)C(C)(C)C(=O)c1c(O)cc(O)c(c1-4)C2=O [Heliomycin],0.056
13,CC(C)C(=O)OCC(=O)[C@@]12O[C@H](C3CCCCC3)O[C@@H]1C[C@H]1[C@@H]3CCC4=CC(=O)C=C[C@]4(C)[C@H]3[C@@H](O)C[C@@]12C [Ciclesonide],-0.0634
14,Clc1ccc2c(c1)C(c1ccccc1)=Nc1ccc(Cl)cc1C(c1ccccc1)=N2,0.0449
15,COc1nccnc1NS(=O)(=O)c1ccc(N)cc1 [Sulfalene],0.0623
16,Cn1cnc(Cl)c1[N+](=O)[O-] [Chlomizol],0.0592
17,O=C(O)CCCNC(=O)c1ccncc1 [Isonicotinoyl Gaba],0.224
18,CC(C)(C)C(=O)OCC(=O)[C@@]1(O)CC[C@H]2[C@@H]3CCC4=CC(=O)C=C[C@]4(C)[C@H]3[C@@H](O)C[C@@]21C [Prednisolone trimethylacetate],0.0529
19,Cc1noc(NS(=O)(=O)c2ccc(N)cc2)c1C [Sulfafurazole],-2.38
20,CC(=O)Oc1cccc2c1C(=O)c1c(OC(C)=O)cc(C(=O)O)cc1C2=O [Diacerein],-0.32

row,SMILES,log
1,Cn1c(=O)c2[nH]c([N+](=O)[O-])nc2n(C)c1=O [8-Nitrotheophylline],-0.185
2,O=C(Nc1ccc(Cl)c(Cl)c1)c1cc(Cl)ccc1NS(=O)(=O)c1cccc2nsnc12 [Triclazan],0.00781
3,CC(=O)OCC(=O)[C@@]1(O)CC[C@H]2[C@@H]3C[C@H](C)C4=CC(=O)C=C[C@]4(C)[C@H]3[C@@H](O)C[C@@]21C [Methylprednisolone acetate],-0.02
4,CCOC(=O)C1=C(C)NC(C)=C(C(=O)OCC)C1c1ccccn1,-0.0451
5,N#CC1=C(N)Oc2c(ccc3ccccc23)C1c1cccc([N+](=O)[O-])c1 (stereo not given),-1.02
6,COc1ccccc1N1CCN(CC(O)COc2cccc3ccccc23)CC1 (stereo not given) [Naftopidil],0.0502
7,COc1ccc(NS(=O)(=O)c2ccc(N)cc2)nn1 [Sulfamethoxypyridazine],0.0222
8,COc1cccc(CCc2ccccc2OCC(CN(C)C)OC(=O)CCC(=O)O)c1 (stereo not given) [Sarpogrelate Hydrochloride],-0.156
9,O=C(O)c1ccccc1C(=O)Nc1ccc(S(=O)(=O)Nc2nccs2)cc1 [Phthalylsulfathiazole],-0.0803
10,Oc1ccc(Cl)cc1Sc1cc(Cl)ccc1O [Fenticlor],-0.0398
11,O=C1C=Cc2cc(Br)ccc2C1=O [Bonaphton],-0.0418
12,NS(=O)(=O)c1ccc(NC(=O)CCC(=O)O)cc1 [Sulfasuccinamide],-0.194
13,CN1[C@@H]2CC[C@H]1C[C@@H](OC(c1ccccc1)c1ccccc1)C2 [Benztropine hydrobromide],-0.389
14,Cc1c(C(=O)NN2CCCCC2)nn(-c2ccc(Cl)cc2Cl)c1-c1ccc(Cl)cc1 [Rimonabant Hydrochloride],-0.2
15,O=C(O)c1cc(=O)c2ccccc2o1 [Chromocarb],-0.0238
16,O=C1C=CC(=O)c2c(O)c(O)c(O)c(O)c21 [Spinizarine],-0.238
17,CCCCN(CCCC)CC(O)c1cc(Cl)cc2c1-c1ccc(Cl)cc1/C2=C/c1ccc(Cl)cc1 (stereo not given) [Lumefantrine],0.0735
18,O=C(CN1CCCCC1)N1CCc2ccccc21 [Indocaine],-0.034
19,O=c1oc2cc(O)ccc2s1 [Tioxolone],0.228
20,Nc1cccc2c1CN(C1CCC(=O)NC1=O)C2=O (stereo not given) [Lenalidomide],-1.07

# Arranged by molecular weight (ascending): some entries from above
row,SMILES,log
15,O=C(O)c1cc(=O)c2ccccc2o1 [Chromocarb],-0.0238
11,O=C1C=Cc2cc(Br)ccc2C1=O [Bonaphton],-0.0418
7,COc1ccc(NS(=O)(=O)c2ccc(N)cc2)nn1 [Sulfamethoxypyridazine],0.0222
